Assay results as given in the supplement of paper PMC4683952.
Some of the results follow. No stated cut-off is given here; in the data, active = 2 or more and inactive = the rest. This data set is noisy: repeats of one test often differ as much as different tests do.

Each molecule was assayed on Lgr5 (MarsCy1-Lgr5-EGFP, U2OS) (assay: cell-surface Lgr5 expression (SCi1 fluorescence, background-subtracted) relative to WT DMSO (fold of DMSO control); higher = more Lgr5 at the plasma membrane). Conditions: U2OS MarsCy1-Lgr5-EGFP stable; treatment time: overnight; library: ActiProbe-5K (TimTec); 25 µM.

Row | Compound | cell-surface Lgr5 expression
1 | O=[N+]([O-])c1ccc(C2COC(c3ccc(Cl)cc3)O2)cc1 (stereo unspecified) | inactive: 1.01
2 | Cc1nc2c(c(-n3nc(N)c(C#N)n3)nn2C)c(C)c1Cl | inactive: 1.39
3 | O=C1CC(=O)N(c2ccc(Br)cc2)N1 | inactive: 1.04
4 | Cn1c(=O)c2c(nc3n2C(c2ccccc2)C(c2ccc(-c4ccccc4)cc2)=NN3)n(C)c1=O (stereo unspecified) | inactive: 1.18
5 | CCCCCCCCCCn1c(SCC)nc2c1c(=O)[nH]c(=O)n2C | inactive: 1.48
6 | CCC(=O)c1c(N2CCCC2)cc(C)oc1=O | inactive: 1.03
7 | Cc1n[nH]c(=O)c2nc(-c3ccncc3)[nH]c12 | inactive: 1.08
8 | CCS(=O)(=O)c1nc(-c2ccc(C)cc2)cc(C(F)(F)F)n1 | inactive: 0.754
9 | Cc1cc(C)c(CSc2nc(N)cc(O)n2)c(C)c1 | inactive: 1.43
10 | O=C(O)C12CC3CC(C1)CC(n1cnc(Cl)n1)(C3)C2 | inactive: 1.09
11 | C=CCOc1c(Br)cc(Br)cc1/C=C1\NC(=S)NC1=O | inactive: 1.08
12 | O=C(N1CCCCC1)C12CC3CC(CC(C3)C1)C2 | inactive: 1.05
13 | Cc1cc2c(c(=O)o1)C(c1ccoc1)C(C#N)=C(N)O2 (stereo unspecified) | inactive: 1.21
14 | O=[N+]([O-])c1c(-c2cn[nH]c2)n[nH]c1-c1cn[nH]c1 | inactive: 1.12
15 | O=[N+]([O-])c1ccc(Nc2nnc(S)s2)cc1 | inactive: 1.33
16 | Cc1cc(C(F)(F)F)c(C#N)c(=O)[nH]1 | inactive: 1.27
17 | O=[N+]([O-])c1ccc2c(c1)oc1ccc(S(=O)(=O)NC3CCCCC3)cc12 | inactive: 1.69
18 | CCOc1nc(C#N)nc(N2CCCCC2)n1 | inactive: 0.783
19 | CC(=O)NCC1=C(NC(C)=O)C2CC1C(C)(C)C2C (stereo unspecified) | inactive: 0.999
20 | NC(=O)N1CCC(CCCC2CCN(C(N)=O)CC2)CC1 | inactive: 1.1
21 | Clc1ccc2nc(N/N=C/c3ccc4c(c3)OCO4)nc(-c3ccccc3)c2c1 | inactive: 1.14
22 | CCOC(=O)Nc1ccc(C)s1 | inactive: 1.23

Row | Compound | cell-surface Lgr5 expression
23 | COC(=O)c1c(NC(=O)/C=C\C(=O)O)sc2c1CCC2 | inactive: 1.67
24 | O=S(=O)(c1ccc2ccccc2c1)N1CCc2ccccc21 | inactive: 1.23
25 | COC(=O)CSc1nnc(-c2cccs2)o1 | inactive: 1.18
26 | N#Cc1c(SCC(=O)Nc2nncs2)sc2c(O)nc(=O)[nH]c12 | inactive: 1.04
27 | Cc1ncc([N+](=O)[O-])n1CCN | inactive: 1.2
28 | Cn1cccc1/C=N\NC(=O)CCCC(=O)N/N=C/c1cccn1C | inactive: 1.05
29 | N#Cc1cc2ccccc2oc1=N | inactive: 1.84
30 | Cc1c(Br)c([N+](=O)[O-])nn1CC(=O)NC(C)C1CC2CCC1C2 (stereo unspecified) | inactive: 1.22
31 | COc1ccc2ccccc2c1/C=N\O | inactive: 0.751
32 | CCc1sc(C(C2C(=O)CC(C)(C)CC2=O)C2C(=O)CC(C)(C)CC2=O)cc1[N+](=O)[O-] | active: 2.75
33 | O=S(=O)(c1cccc2c(S(=O)(=O)N3CCOC(COc4ccccc4)C3)cccc12)N1CCOC(COc2ccccc2)C1 (stereo unspecified) | inactive: 1.08
34 | O=C1CSC(=O)N1CC(O)Cn1c2ccc(Br)cc2c2cc(Br)ccc21 (stereo unspecified) | inactive: 0.999
35 | Nc1n[nH]c(SCC(=O)Nc2nonc2-n2cccc2)n1 | inactive: 0.962
36 | CC1=NN(C(=N)N)C(=O)C1 | inactive: 1.13
37 | CCCc1nnc(N)s1 | inactive: 1.17
38 | CS(=O)(=O)c1nc(-c2ccc(Br)cc2)n[nH]1 | inactive: 1.37
39 | CCCCOC(=O)Nc1sc2c(c1C(=O)OC)CCC2 | inactive: 1.11
40 | Cn1c(COc2ccc3ccccc3c2)nc2ccccc21 | inactive: 1.17
41 | COC(=O)c1sc(C(=O)OC)c(Cl)c1Cl | inactive: 1.02
42 | Cc1nc(S(=O)(=O)n2ccnc2)c(C#N)c(C)c1Cl | inactive: 1.13
43 | Cn1cccc1/C=C(/C#N)C(N)=S | inactive: 0.863
44 | O=[N+]([O-])c1cnc(N2CCCCC2)nc1 | inactive: 1.16

Row | Compound | cell-surface Lgr5 expression
45 | CCn1ncc(NS(=O)(=O)c2cnn(C)c2)c1C(=O)Nc1cnn(C)c1C | inactive: 1.06
46 | COc1ccc(OC)c(C2=Nn3c(nnc3-c3ccccc3OC)SC2)c1 | inactive: 0.909
47 | CCCC1CC2(O)CC(C#N)(C(=O)N2)C1(C#N)C#N (stereo unspecified) | inactive: 1.27
48 | c1ccc(-c2nc(-c3ccncc3)cc(-c3ccccn3)n2)cc1 | inactive: 1.13
49 | CC1=C(C#N)C(c2ccsc2)c2nc(N)oc2N1 (stereo unspecified) | inactive: 1.08
50 | NC(=O)Cn1cnc2sc3c(c2c1=O)CCC3 | inactive: 1.09
51 | Nc1cc(-c2cccs2)n[nH]1 | inactive: 1.36
52 | c1(c(sc2c1CCCC2)NC(C1C(C)(C)C1\C=C(\Cl)Cl)=O)C(OC(C)C)=O (stereo unspecified) | inactive: 1.19
53 | O=C1Oc2ccccc2C2Oc3c(c(=O)oc4ccccc34)C3(C(=O)Nc4ccccc43)C12 (stereo unspecified) | inactive: 1.15
54 | COC(=O)c1c(Br)cnn1C | inactive: 1.22
55 | O=C1/C(=C\c2ccsc2)N2CCC1CC2 | inactive: 0.851
56 | O=S(=O)([O-])c1ccc(-c2nnc(-c3ccccn3)nc2-c2ccc(S(=O)(=O)[O-])o2)o1.[Na+].[Na+] | inactive: 1.13
57 | O=S(=O)(c1cccs1)c1cccs1 | inactive: 1.34
58 | C1=Nn2cnnc2SC(c2ccccc2)=C1 | inactive: 0.585
59 | O=C(N1CCCCCC1)N1CCOCC1 | inactive: 1.04
60 | C=C1Cn2c(nnc2-c2ccc(Cl)cc2)S1 | inactive: 1.08
61 | COc1ccc2c(c1)NC(C)(C)C=C2C | inactive: 1.4
62 | COc1cc(C2Oc3ccccc3C3CC(c4ccccc4)=NN32)cc(OC)c1OC (stereo unspecified) | inactive: 0.767
63 | c1coc(C2Nc3ccccc3C3OCCC23)c1 (stereo unspecified) | inactive: 1.18
64 | S=C(Nc1ccccc1)N1CCc2ccccc21 | inactive: 0.977
65 | C=CCNc1nc2ccccn2c(=O)c1/C=C1\SC(=S)N(CC2CCCO2)C1=O (stereo unspecified) | inactive: 1.45
66 | O=C(/N=c1/nc2ccccn2s1)c1ccc(F)cc1 | inactive: 0.893

Reprinted, entries 61–63
Row | Compound | cell-surface Lgr5 expression
61 | COc1ccc2c(c1)NC(C)(C)C=C2C | inactive: 1.4
62 | COc1cc(C2Oc3ccccc3C3CC(c4ccccc4)=NN32)cc(OC)c1OC (stereo unspecified) | inactive: 0.767
63 | c1coc(C2Nc3ccccc3C3OCCC23)c1 (stereo unspecified) | inactive: 1.18
